Results are given in words; binding and its absence hold for the method and conditions named. In cells and extracts the contact can be indirect. Some entries that bind do so weakly or less than the wild type.
How the values were obtained:
[1] = molecular target: roundabout guidance receptor 1 (ROBO1) (human (endogenous in KYSE450 and TE1)) (UniProt Q9Y6N7); assay: co-IP; endogenous proteins in ESCC cells (Fig. 4B); the precipitating antibody is not told in the text or legend; IgG as control, Protein A + G agarose beads, Western blot
[2] = molecular target: roundabout guidance receptor 1 (ROBO1) (human (endogenous in KYSE450 and TE1)) (UniProt Q9Y6N7); assay: co-IP; endogenous proteins; ESCC cell lysates (KYSE450, TE1) incubated with anti-ROBO1 antibodies, IgG as control, Protein A + G agarose beads, Western blot

The chains behind the UniProt entries cited, without tags or fusion partners. Residues count along the entry.
UniProt Q9Y6N7, residues 26-1651: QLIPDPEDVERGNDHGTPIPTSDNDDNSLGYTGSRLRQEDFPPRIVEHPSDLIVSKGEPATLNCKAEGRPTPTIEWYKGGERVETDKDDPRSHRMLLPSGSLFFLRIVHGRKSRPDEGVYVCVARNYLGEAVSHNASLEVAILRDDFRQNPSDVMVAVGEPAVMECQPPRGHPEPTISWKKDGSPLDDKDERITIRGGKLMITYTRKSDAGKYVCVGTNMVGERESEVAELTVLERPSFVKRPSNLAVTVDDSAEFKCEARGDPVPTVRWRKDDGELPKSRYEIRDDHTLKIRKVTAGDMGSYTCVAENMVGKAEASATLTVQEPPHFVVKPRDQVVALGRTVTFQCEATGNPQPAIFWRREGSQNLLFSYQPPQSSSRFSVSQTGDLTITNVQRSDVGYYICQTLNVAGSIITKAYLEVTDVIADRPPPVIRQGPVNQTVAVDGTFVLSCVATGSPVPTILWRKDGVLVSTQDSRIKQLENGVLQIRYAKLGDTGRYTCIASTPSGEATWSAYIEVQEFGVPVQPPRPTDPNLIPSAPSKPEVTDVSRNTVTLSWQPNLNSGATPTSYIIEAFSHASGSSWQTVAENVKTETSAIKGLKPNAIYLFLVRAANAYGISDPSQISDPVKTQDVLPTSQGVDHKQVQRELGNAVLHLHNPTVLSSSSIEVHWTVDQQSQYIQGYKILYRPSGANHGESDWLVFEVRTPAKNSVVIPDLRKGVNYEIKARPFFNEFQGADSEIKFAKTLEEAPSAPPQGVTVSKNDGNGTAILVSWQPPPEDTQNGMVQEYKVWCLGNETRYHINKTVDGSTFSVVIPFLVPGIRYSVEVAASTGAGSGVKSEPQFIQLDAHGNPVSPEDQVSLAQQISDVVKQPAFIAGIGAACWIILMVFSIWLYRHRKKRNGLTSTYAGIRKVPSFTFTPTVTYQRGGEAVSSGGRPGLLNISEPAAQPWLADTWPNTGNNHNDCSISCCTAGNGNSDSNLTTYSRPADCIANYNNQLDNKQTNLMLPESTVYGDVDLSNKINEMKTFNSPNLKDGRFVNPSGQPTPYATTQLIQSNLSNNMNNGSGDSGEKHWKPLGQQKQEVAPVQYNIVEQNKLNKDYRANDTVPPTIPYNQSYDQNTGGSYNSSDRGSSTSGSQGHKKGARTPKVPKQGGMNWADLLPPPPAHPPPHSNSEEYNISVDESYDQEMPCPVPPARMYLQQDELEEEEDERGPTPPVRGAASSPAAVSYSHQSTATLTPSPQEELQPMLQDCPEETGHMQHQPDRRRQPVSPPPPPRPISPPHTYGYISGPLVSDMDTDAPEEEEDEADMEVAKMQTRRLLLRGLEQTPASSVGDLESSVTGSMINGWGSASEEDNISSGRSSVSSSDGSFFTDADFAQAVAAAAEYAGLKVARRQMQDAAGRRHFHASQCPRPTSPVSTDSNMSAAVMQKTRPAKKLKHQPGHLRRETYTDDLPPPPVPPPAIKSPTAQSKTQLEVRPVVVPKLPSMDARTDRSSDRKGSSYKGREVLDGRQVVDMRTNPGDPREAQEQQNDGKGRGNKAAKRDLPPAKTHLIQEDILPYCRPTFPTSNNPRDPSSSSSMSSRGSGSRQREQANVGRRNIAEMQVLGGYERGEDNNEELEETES

- binding [1]: binds
- binding [2]: binds
B1: G3BP2 (Ras GTPase-activating protein-binding protein 2) (protein, UniProt Q9UN86 1-482)
chain: MVMEKPSPLLVGREFVRQYYTLLNKAPEYLHRFYGRNSSYVHGGVDASGKPQEAVYGQNDIHHKVLSLNFSECHTKIRHVDAHATLSDGVVVQVMGLLSNSGQPERKFMQTFVLAPEGSVPNKFYVHNDMFRYEDEVFGDSEPELDEESEDEVEEEQEERQPSPEPVQENANSGYYEAHPVTNGIEEPLEESSHEPEPEPESETKTEELKPQVEEKNLEELEEKSTTPPPAEPVSLPQEPPKAFSWASVTSKNLPPSGTVSSSGIPPHVKAPVSQPRVEAKPEVQSQPPRVREQRPRERPGFPPRGPRPGRGDMEQNDSDNRRIIRYPDSHQLFVGNLPHDIDENELKEFFMSFGNVVELRINTKGVGGKLPNFGFVVFDDSEPVQRILIAKPIMFRGEVRLNVEEKKTRAARERETRGGGDDRRDIRRNDRGPGGPRGIVGGGMMRDRDGRGPPPRGGMAQKLGSGRGTGQMEGRFTGQRR

Source: PMC11972380
